B1: CPS-01 (antibody, V domains shown)
VH: QVQLVQSGAEVKKPGASVKVSCKASGYIFRSYWIHWIRQPPGKGLEWIGRIYPGTGRTYYNEKFKGRVTISADKSISTAYLQWSSLKASDTAMYYCARSYDSSVAYWGQGTLVTVSS
VL: AIQLTQSPSSLSASVGDRVTITCSASSSVSYMHWYLQKPGQSPQLLIYKTSKLASGVPSRFSGSGSGTDFTFTISSLEAEDAATYYCQQWSSNPYITFGQGTKVEIKR
B2: CPS-16 (antibody, V domains shown)
VH: B1 VH with R57N, E62R, D101M, S102Y
VL: B1 VL
B3: CPS-04 (antibody, V domains shown)
VH: B1 VH with R57N, E62R
VL: B1 VL with A54L
B4: CPS-09 (antibody, V domains shown)
VH: B1 VH with S102Y
VL: B1 VL with K49E, S51R
B5: CPS-11 (antibody, V domains shown)
VH: B1 VH with S102Y
VL: B1 VL with S51R
B6: CPS-02 (antibody, V domains shown)
VH: B1 VH
VL: B1 VL with S51R
B7: CPS-14 (antibody, V domains shown)
VH: B1 VH with R30T, E62R, S102Y
VL: B1 VL with K49E, S51R
B8: CPS-10 (antibody, V domains shown)
VH: B1 VH with S102Y
VL: B1 VL with K49E, A54L
B9: CPS-17 (antibody, V domains shown)
VH: B1 VH with R57N, E62R, D101M, S102Y
VL: B1 VL with K49E, S51R
B10: CPS-20 (antibody, V domains shown)
VH: B1 VH with R57N, E62R, D101M, A105G
VL: B1 VL with Y31K, K49E, S51R
B11: hum10 (antibody, V domains shown)
VH: B1 VH with R30T, R57N, V104C
VL: B1 VL with K49E
B12: CPE-LC-E049K (antibody, V domains shown)
VH: B1 VH with R30T, R57N, V104C
VL: B1 VL

Substitutions are numbered along the chain they refer to. In names and notes the source's numbering stands. These are yes or no findings as the source states them, for the method shown.

The target of the first test is INF-2. Put plainly: ELISA, antigen coated at 1 µg/ml, anti-hIgG-HRP. In general terms: ELISA stands for enzyme-linked immunosorbent assay.
On to B1, for which the binding entry was “no binding (tested: 100 ng/ml)”.
Still for that read-out and setting: with B2 the entry was “no binding (tested: 100 ng/ml)”; with B3, “no binding (tested: 100 ng/ml)”; with B4, “no binding (tested: 100 ng/ml)”.
On to B5, for which the binding entry is reported as “no binding (tested: 100 ng/ml)”.
Still for that read-out and setting: for B6 the value was “no binding (tested: 100 ng/ml)”.
Still for that read-out and setting: for B7 the value was “no binding (tested: 100 ng/ml)”; for B8, “no binding (tested: 100 ng/ml)”.
Still for that read-out and setting: for B9 the value was “no binding (tested: 100 ng/ml)”; for B10, “no binding (tested: 100 ng/ml)”.

The next test concerns the target INF-2. In words: ELISA on coated antigen (1 ug/ml), anti-hIgG-HRP, OD450.
On to B11, for which the binding result is given as “no binding (tested: 100 ng/ml)”.
The same measure, in the same setting: with B12 the entry was “no binding (tested: 100 ng/ml)”.
The same measure, in the same setting: for B3 the value was “no binding (tested: 100 ng/ml)”.
Take B4: the binding result is on record as “no binding (tested: 100 ng/ml)”.
Still for that read-out and setting: for B6 the value was “no binding (tested: 100 ng/ml)”; for B7, “no binding (tested: 100 ng/ml)”.
The same measure, in the same setting: for B9 the value was “no binding (tested: 100 ng/ml)”.

Substrate in the next test: INF alpha A
Put plainly: ELISA, antigen coated at 1 µg/ml, anti-hIgG-HRP.
B1: the binding entry is on record as “no binding (tested: 100 ng/ml)”.
On the same count and under the same terms, with B2 the entry was “no binding (tested: 100 ng/ml)”; with B3, “no binding (tested: 100 ng/ml)”; with B4, “no binding (tested: 100 ng/ml)”.
Still for that read-out and setting: for B5 the value was “no binding (tested: 100 ng/ml)”; for B6, “no binding (tested: 100 ng/ml)”.
Turning to B7, the binding result was “no binding (tested: 100 ng/ml)”.
With B8, the binding result is reported as “no binding (tested: 100 ng/ml)”.
The same measure, in the same setting: for B9 the value was “no binding (tested: 100 ng/ml)”.
Same read-out and setting: with B10 the entry was “no binding (tested: 100 ng/ml)”.

Substrate in a further test: INF alpha A
Put plainly: ELISA on coated antigen (1 ug/ml), anti-hIgG-HRP, OD450.
Take B11: the binding result is reported as “no binding (tested: 100 ng/ml)”.
Still for that read-out and setting: for B12 the value was “no binding (tested: 100 ng/ml)”; for B3, “no binding (tested: 100 ng/ml)”; for B4, “no binding (tested: 100 ng/ml)”.
On the same count and under the same terms, with B6 the entry was “no binding (tested: 100 ng/ml)”.
On the same count and under the same terms, with B7 the entry was “no binding (tested: 100 ng/ml)”.
With B9, the binding entry is reported as “no binding (tested: 100 ng/ml)”.

(Values after patent publication US20210230263A1.)
